Experimental data taken from article PMC6466687.
No constants are given. Whether binding was seen depends on the method and setting. In cells and extracts the contact can be indirect. Here binding means that the protein was enriched with, or labelled near, the bait; the list need not be complete.

By UniProt entry, the sequences of proteins in these tests, tags left out.
UniProt Q13620: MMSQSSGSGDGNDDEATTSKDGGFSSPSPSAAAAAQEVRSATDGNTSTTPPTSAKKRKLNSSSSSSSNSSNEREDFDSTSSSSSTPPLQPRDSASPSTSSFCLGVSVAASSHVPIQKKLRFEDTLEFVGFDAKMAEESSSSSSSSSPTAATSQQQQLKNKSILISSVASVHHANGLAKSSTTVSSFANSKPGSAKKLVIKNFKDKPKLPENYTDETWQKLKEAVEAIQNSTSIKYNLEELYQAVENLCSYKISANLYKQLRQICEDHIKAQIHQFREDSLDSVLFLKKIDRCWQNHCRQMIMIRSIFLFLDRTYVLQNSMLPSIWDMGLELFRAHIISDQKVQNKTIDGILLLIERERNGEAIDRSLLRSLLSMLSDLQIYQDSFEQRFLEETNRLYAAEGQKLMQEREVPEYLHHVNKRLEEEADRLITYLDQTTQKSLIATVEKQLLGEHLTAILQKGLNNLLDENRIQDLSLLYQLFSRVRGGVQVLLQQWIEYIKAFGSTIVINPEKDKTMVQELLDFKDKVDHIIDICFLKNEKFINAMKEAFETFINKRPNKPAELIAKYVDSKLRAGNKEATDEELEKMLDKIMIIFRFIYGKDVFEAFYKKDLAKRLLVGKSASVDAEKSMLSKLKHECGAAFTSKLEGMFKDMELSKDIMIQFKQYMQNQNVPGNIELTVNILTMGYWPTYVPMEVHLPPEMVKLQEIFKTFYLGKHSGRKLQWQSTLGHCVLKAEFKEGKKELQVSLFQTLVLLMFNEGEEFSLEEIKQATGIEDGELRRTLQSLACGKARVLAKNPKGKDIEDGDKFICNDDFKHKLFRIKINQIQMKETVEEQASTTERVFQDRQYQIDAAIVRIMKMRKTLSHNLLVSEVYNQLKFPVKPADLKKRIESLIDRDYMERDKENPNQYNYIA
UniProt P51449: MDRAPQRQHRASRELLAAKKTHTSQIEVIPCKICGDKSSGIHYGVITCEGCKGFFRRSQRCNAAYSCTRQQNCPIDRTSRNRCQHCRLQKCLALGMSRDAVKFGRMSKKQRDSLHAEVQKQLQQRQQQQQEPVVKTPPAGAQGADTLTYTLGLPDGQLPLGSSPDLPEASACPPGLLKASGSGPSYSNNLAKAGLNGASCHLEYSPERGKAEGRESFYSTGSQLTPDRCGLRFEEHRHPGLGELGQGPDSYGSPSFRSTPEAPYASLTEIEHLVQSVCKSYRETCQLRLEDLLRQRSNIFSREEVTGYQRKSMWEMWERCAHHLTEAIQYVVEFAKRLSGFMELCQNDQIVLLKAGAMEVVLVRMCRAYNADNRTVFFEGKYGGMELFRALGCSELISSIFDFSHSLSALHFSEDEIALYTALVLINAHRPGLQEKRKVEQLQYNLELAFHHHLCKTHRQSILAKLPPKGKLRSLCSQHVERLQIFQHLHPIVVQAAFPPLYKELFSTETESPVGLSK

Biological target: CUL4B (human (endogenous in NT2)) (UniProt Q13620)
Assay: affinity purification with mass spectrometry; IP with an antibody for CUL4B, precipitated proteins identified by mass spectrometry (IP/Mas); cells not named for this experiment

For “retinoic acid-related orphan nuclear receptor gamma (from UniProt P51449 1-518)”, the binding was “binds”.
